PubChem BioAssay AID2685 (National Center for Advancing Translational Sciences (NCATS), 2010)
This is one part of the list. Shown are side measurements of this screen, not its main read-out; they come without a call. Compounds called inactive in the main read-out are mostly missing here. The note in brackets gives the kind of curve behind each potency; many fits are weak.

Test: qHTS Assay for Lipid Storage Modulators in Drosophila S3 Cells;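 for cell number change: cells counted by Cell Tracker Red CMTPX staining in the red channel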
Settings: BODIPY lipid droplet fluorescence, 18-24 h; for cell number change: measured here: cell count max response, cells fed with added oleic acid
Procedure, shortened: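 Drosophila S3 cells loaded with oleic acid (400 uM, as added) and compounds at several concentrations; lipid droplets imaged by 488-nm laser-scanning cytometry, 500–530 nm intensity and object ratio to cell channel. Percent activity normalized to 20 uM Triacsin C.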

[1] = measured here: lipid fluorescence (Fed channel) AC50, cells fed with added oleic acid
[2] = measured here: cell number channel AC50, cells fed with added oleic acid

SMILES	cell number change [%]	AC50 [1]	AC50 [2]
CCOC(=O)C1(Cc2cccc(OC)c2)CCN(CCO)CC1	-5.14	1.46 µM [falling, partial curve, poor fit]	
O=C(c1c[nH]c2ccccc12)C(Cl)c1ccccc1 (centres undefined)	-24	16.4 µM [falling, single point]	
Cc1cc(=O)oc2cc(OCC(=O)NC3CCN(Cc4ccccc4)CC3)c(Cl)cc12	7.93		
CCCC1C(C(=O)OCC)=C(C)NC(C)=C1C(=O)OCC	-32.4		29.1 µM [falling, single point]
C=CCN1C(=O)/C(=C2\SC(N3CCOCC3)=NC2=O)c2cc(Br)ccc21	63.1		16.4 µM [rising, single point]
C=CCOCC(O)Cn1c(N2CCCC2)nc2c1c(=O)n(C)c(=O)n2C (centres undefined)	3.86	29.1 µM [rising, single point]	
Cc1cccc(-c2nsc(SCC(=O)c3ccc(Cl)cc3)n2)c1	6.79	5.17 µM [rising, partial curve]	
CC(=O)c1ccc(NCC(=O)N2CCN(S(=O)(=O)c3ccccc3)CC2)cc1	-28	6.51 µM [falling, single point]	
CCCCNC(=O)C(=O)NC(C)CCc1ccccc1 (centres undefined)	-10.7	0.461 µM [falling, full curve]	6.51 µM [rising, single point]
CCOc1ccc(S(=O)(=O)N2CCCCC2)cc1NC(=O)CCNC(=O)c1ccco1	69.1		11.6 µM [rising, partial curve]
N#CCCN(C(=O)COC(=O)CCc1nc2ccccc2c(=O)[nH]1)c1ccc(F)cc1	-2.67	0.00461 µM [falling, full curve, poor fit]	
COC(=O)CSc1nc2nc(C)c(Br)cc2[nH]1		0.0259 µM [rising, full curve, poor fit]	
COc1ccccc1-n1cccc1C=O	-1.37	18.4 µM [rising, single point]	4.61 µM [falling, single point]
O=C(Oc1ccccc1C(=O)N1CCOCC1)c1ccc(F)cc1	-1.6		
COc1ccccc1NC(=S)N1CCN(Cc2ccc3c(c2)OCO3)CC1	-100	0.291 µM [rising, full curve, poor fit]	29.1 µM [falling, single point]
O=C(NC(Cc1ccccc1)C(=O)O)/C(=C/c1cccc(Br)c1)NC(=O)c1ccco1 (centres undefined)		0.58 µM [falling, single point]	
CC(C)N1C(=O)S/C(=C\c2ccc(-c3ccc(Cl)c(C(=O)O)c3)o2)C1=O	-15.9	18.4 µM [rising, single point]	
CCN(CC)CCCNc1nc2cc(OC)c(OC)cc2c2nc(-c3cccnc3)nn12	12.1		
Cc1ccccc1C1(CCN2CCCCC2)CCOC(C)(C)C1 (centres undefined)	36	0.731 µM [rising, full curve]	5.8 µM [rising, full curve]
CN(C)S(=O)(=O)N1CCN(CC(O)COc2ccc(-c3ccccc3)cc2)CC1 (centres undefined)	-16.4	29.1 µM [falling, single point]	
COc1ccc(CNC(=O)CS(=O)(=O)Cc2nc(-c3cccc(OC)c3)oc2C)cc1	14.1	29.1 µM [falling, single point]	
CC1=[N+]([O-])C(N2CCOCC2)C(O)(c2ccccc2)C1 (centres undefined)	-8.59	1.03 µM [falling, full curve]	
CCCN1C(=O)/C(=C/c2c(NCCCOC(C)C)nc3c(C)cccn3c2=O)SC1=S	14.6	14.6 µM [rising, partial curve, poor fit]	

Shown with bars between the fields: part of the list above
SMILES | cell number change [%] | AC50 [1] | AC50 [2]
COc1ccccc1-n1cccc1C=O | -1.37 | 18.4 µM [rising, single point] | 4.61 µM [falling, single point]
O=C(Oc1ccccc1C(=O)N1CCOCC1)c1ccc(F)cc1 | -1.6 |  | 
COc1ccccc1NC(=S)N1CCN(Cc2ccc3c(c2)OCO3)CC1 | -100 | 0.291 µM [rising, full curve, poor fit] | 29.1 µM [falling, single point]

Remaining list, next part.

SMILES	cell number change [%]	AC50 [1]	AC50 [2]
OC(COC(c1ccccc1)c1ccccc1)CN1CCc2ccccc2C1 (centres undefined)	1.38	14.6 µM [falling, single point]	
CCOc1ccc(NC(=O)CCCCCN2C(=O)[C@@H]3Cc4ccccc4CN3C2=O)cc1	16.5	20.6 µM [rising, partial curve]	
CCOc1ccc(C(=O)CCC(=O)NN2C(=O)NC3(CCCCC3)C2=O)cc1	20.4		
O=C(Nc1cccc(F)c1)C1CCN(C(=O)NCc2ccccc2)CC1	10.3		
COc1cc(N/C(N)=N/c2nc(C)cc(C)n2)cc(OC)c1	-3.51	29.1 µM [rising, single point]	
CCCCCNC(=O)c1ccc2c(=O)n(CCOC)c(=O)[nH]c2c1	-1.43	0.00517 µM [falling, full curve, poor fit]	
O=C(O)c1ccccc1C(=O)Nc1cc(-c2ccccc2)[nH]n1	-2.13		
CC(C)C[C@H]1CN=C(Nc2ccccc2)N1CCCC1CCCCC1	-2.4		
COC(=O)CN1C(=S)N(c2ccc(F)cc2)C(=O)C1CC(=O)Nc1ccccc1 (centres undefined)		1.03 µM [falling, full curve]	0.82 µM [falling, full curve]
O=C(NNc1cccc(Cl)n1)C1CC1	-30.6	0.116 µM [falling, full curve]	0.146 µM [falling, full curve]
CCC(C)(C)n1nnnc1C(C(C)C)N1CCN(C(=O)c2ccco2)CC1 (centres undefined)	1.28		
CCOc1ccc(C(C)C)cc1S(=O)(=O)N1CCN(C(=O)c2ccco2)CC1	-8.2	6.51 µM [rising, single point]	
CNS(=O)(=O)c1cccc(C(=O)NNC(=O)CN(C)S(=O)(=O)c2ccc(Cl)cc2)c1	-6		
COc1cccc(OCCCn2ccnc2)c1	-16.8	29.1 µM [falling, single point]	
O=C(O)c1cc(C2CC2)nn1-c1ccccc1	-0.116		
Cc1cccc(NC(=O)CCN2CCOCC2)c1	10.6	0.651 µM [falling, full curve, poor fit]	
N#CCCNS(=O)(=O)c1ccc(C(=O)OCC2CCCCC2)cc1	-5.56	11.6 µM [falling, partial curve]	
COc1ccc(OC)c(C2C(C#N)=C(N)Oc3cc(N)ccc32)c1 (centres undefined)	-0.749		0.164 µM [rising, partial curve]
CN(Cc1nc(-c2ccc(Cl)cc2)no1)C(=O)c1ccco1	-3.85	29.1 µM [falling, single point]	
O=C(O)CCC(=O)OCc1c(-c2ccccc2)ncc2ccccc12	10		
COc1ccccc1NC(=S)NC1CCC(CC2CCC(NC(=S)Nc3ccccc3OC)CC2)CC1 (centres undefined)	-11.5	29.1 µM [rising, single point]	
CC12CCC(=O)N1C(C(=O)NCCc1ccccc1)CS2 (centres undefined)	13		
COc1ccc(CC(=O)NC(C)c2nnc(SCC(=O)c3ccc(Br)cc3)n2C)cc1 (centres undefined)	-83.1		29.1 µM [falling, single point]

SMILES	cell number change [%]	AC50 [1]	AC50 [2]
Cc1cccc(NS(=O)(=O)c2cccc3cccnc23)n1	-0.245	0.461 µM [rising, partial curve]	
Cc1ccc(NS(=O)(=O)c2cccc([N+](=O)[O-])c2)nc1	53.2		29.1 µM [rising, partial curve, poor fit]
COc1ccccc1CC(=O)N1CCOCC1	5.11	29.1 µM [rising, single point]	
CCCCC/C=N/NC(=O)c1[nH]c2ccc([N+](=O)[O-])cc2c1C	-12.8		
CCCc1nnc(NC(=O)CCC(=O)Nc2ccc(Cl)cc2)s1	-7.09		
C/C(N)=C(/C#N)C(=O)CSc1nc2ccccc2c(=O)n1Cc1ccc(F)cc1	-8.32	6.51 µM [falling, single point]	
CC(=O)Nc1ccc(OCC(O)CN2CCCCC2C)cc1 (centres undefined)	-16.9	6.51 µM [falling, single point]	
C=CCNC(=O)/C(C#N)=C/c1ccc(C)o1	45.1	0.184 µM [rising, full curve, poor fit]	
O=C(Oc1ccccc1/C=C\C(=O)c1cc2ccccc2o1)c1cccc(F)c1	-11	29.1 µM [falling, single point]	
CNC(=O)COC(=O)c1ccc(NC(=O)CC#N)cc1	-17.2	0.146 µM [falling, full curve, poor fit]	
COc1cccc(CC(=O)OCc2csc(CC(=O)Nc3ccccc3C)n2)c1	-8.6	0.206 µM [falling, full curve, poor fit]	
C/C(=N\NC(=O)C1COc2ccccc2O1)c1ccccn1 (centres undefined)	6.09	20.6 µM [falling, single point]	
CC(=O)Nc1ccc(C(=O)Nc2ccc(S(=O)(=O)N3CCCC3)cc2)cc1	1.02		
Cc1ccc2nc(SCC(=O)Nc3ccc(C(N)=O)cc3)[nH]c2c1	24.5		
NC(=O)c1nn(-c2ccccc2)nc1NC(=O)Cn1nnc(-c2ccccc2)n1	2.04	0.291 µM [rising, full curve, poor fit]	
O=C1CN(C(=O)c2ccccc2F)C(c2ccccc2)c2cc(Cl)ccc2N1 (centres undefined)	16.2		
O=C(NC1CCCC1)C(c1ccccn1)N(C(=O)c1csnn1)c1ccc(F)cc1 (centres undefined)	19.3	6.51 µM [rising, single point]	
CCOc1ccccc1N(CC(=O)O)S(=O)(=O)c1ccc(C)cc1	-5.86	32.6 µM [falling, single point]	
COc1cccc(N/C(C)=C/C(=O)c2ccc(Br)cc2)c1	3.62	7.31 µM [rising, partial curve]	
O=C(NC1CCCC1)C(c1ccccc1)N(Cc1ccco1)C(=O)Cc1cccs1 (centres undefined)	-22.2	29.1 µM [falling, single point]	
Cc1ccc(S(=O)(=O)NCC(=O)N(CC2CCCO2)C(C(=O)NC2CCCC2)C(C)C)cc1 (centres undefined)	12.1		
